In one experiment the test system is TGFβ. The experiment is described as follows: Luciferase reporter gene assay for TGFβ activity (HEK293T SBE-Luc SMAD2/3 reporter, TGFβ agonist). The note with it: read-out: TGFβ IC50, TGFβ 5 ng/mL. A general note: A reporter such as luciferase makes a cellular process visible.
The target in a further experiment is ALK2 (Mus musculus, UniProt P37172). The experiment is described as follows: Luciferase reporter gene assay for ALK2 activity (C2C12 BRE-Luc SMAD1/5/8 reporter, BMP6 agonist). To be noted: read-out: ALK2 IC50, BMP6 50 ng/mL.

By UniProt entry, the sequences of proteins in these tests, tags left out. Residues count along the entry.
UniProt P37172, 21-509 limits assumed: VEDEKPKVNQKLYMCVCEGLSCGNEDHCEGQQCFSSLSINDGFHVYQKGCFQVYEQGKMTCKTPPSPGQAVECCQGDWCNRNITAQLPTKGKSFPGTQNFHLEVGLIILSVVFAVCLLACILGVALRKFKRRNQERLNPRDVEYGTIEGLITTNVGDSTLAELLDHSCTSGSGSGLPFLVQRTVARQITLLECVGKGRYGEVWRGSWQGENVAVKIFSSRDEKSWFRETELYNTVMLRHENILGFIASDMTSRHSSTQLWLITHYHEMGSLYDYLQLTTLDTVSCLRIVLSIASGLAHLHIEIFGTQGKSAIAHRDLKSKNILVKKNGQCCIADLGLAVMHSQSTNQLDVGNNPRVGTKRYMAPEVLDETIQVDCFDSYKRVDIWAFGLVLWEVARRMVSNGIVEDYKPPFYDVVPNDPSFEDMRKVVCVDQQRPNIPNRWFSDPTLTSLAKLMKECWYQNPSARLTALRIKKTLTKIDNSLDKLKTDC

Structures were worked out from names or drawings and are uncertain.

As to `COc1cc2c(-c3cnn4cc(N5CC6(CC(N(C)C)C6)C5)cnc34)ccnc2cc1F`, the IC50 in the experiment with TGFβ came to 33 nM; on ALK2, 3 nM.

For the compound `COc1cc2c(-c3cnn4cc(N5C[C@H]6CNC[C@H]6C5)cnc34)ccnc2cc1F` (relative stereo), the IC50 in the experiment on TGFβ turned out to be 110 nM; on ALK2, 6 nM.

On to `Cc1cc(-c2cnn3cc(N4CCC5(CC4)CN(C)C5)cnc23)c2ccccc2n1`, for which the IC50 in the experiment with TGFβ came out at 18 nM; at ALK2, 48 nM.

As to `CN1CCN(C2CCN(c3cnc4c(-c5c[nH]c(=O)c6ccccc56)cnn4c3)CC2)CC1`, the IC50 with TGFβ was found to be 88 nM; on ALK2, 31 nM.

For `COc1cc2c(-c3cnn4cc(N5CCN(C6CNC6)CC5)cnc34)ccnc2cc1F`, the IC50 was found to be 635 nM with TGFβ and 964 nM on ALK2.

In the case of `COc1cc2c(-c3cnn4cc(N5CC(N6CCS(=O)(=O)CC6)C5)cnc34)ccnc2cc1F`, the IC50 was 99 nM in the experiment on TGFβ and 15 nM on ALK2.

As for `COc1cc2c(-c3cnc4cc(N5CC(N6CCN(C)CC6)C5)cnn34)ccnc2cc1F` [Compound 335], the IC50 in the experiment with TGFβ is 439 nM; on ALK2, 48 nM.

On to `COc1cc2c(-c3cnn4cc(N5CC6(CC(N)C6)C5)cnc34)ccnc2cc1F`, for which the IC50 in the experiment on TGFβ was 67 nM; on ALK2, 11 nM.

The values are drawn from US20230000869A1, “NOVEL ALK2 INHIBITORS AND METHODS FOR INHIBITING BMP SIGNALING” (The Brigham and Women's Hospital, Inc., priority 2017, published 2023).
